Assay results taken from paper PMC6377664.
These are yes or no findings as the source states them, for the method shown. Binding seen in cells or lysates may run through a third protein. Some binding calls cover weakened binding; strength is not graded here. For some of these results: Tags and fused reporters may be left off the sequences shown. Blank lines part the entries; values can stand above or below the molecule they belong to.

By UniProt entry, the sequences of proteins in these tests, tags left out. Residues count along the entry.
UniProt P49789: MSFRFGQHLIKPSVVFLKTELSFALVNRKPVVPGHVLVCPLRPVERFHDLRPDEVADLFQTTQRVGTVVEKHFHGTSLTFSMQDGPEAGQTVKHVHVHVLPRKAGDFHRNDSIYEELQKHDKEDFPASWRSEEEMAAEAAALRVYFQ
UniProt P61604: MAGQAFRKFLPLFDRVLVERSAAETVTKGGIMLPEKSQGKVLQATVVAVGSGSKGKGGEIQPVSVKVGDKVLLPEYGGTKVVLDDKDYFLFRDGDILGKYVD
UniProt P10809, residues 27-573: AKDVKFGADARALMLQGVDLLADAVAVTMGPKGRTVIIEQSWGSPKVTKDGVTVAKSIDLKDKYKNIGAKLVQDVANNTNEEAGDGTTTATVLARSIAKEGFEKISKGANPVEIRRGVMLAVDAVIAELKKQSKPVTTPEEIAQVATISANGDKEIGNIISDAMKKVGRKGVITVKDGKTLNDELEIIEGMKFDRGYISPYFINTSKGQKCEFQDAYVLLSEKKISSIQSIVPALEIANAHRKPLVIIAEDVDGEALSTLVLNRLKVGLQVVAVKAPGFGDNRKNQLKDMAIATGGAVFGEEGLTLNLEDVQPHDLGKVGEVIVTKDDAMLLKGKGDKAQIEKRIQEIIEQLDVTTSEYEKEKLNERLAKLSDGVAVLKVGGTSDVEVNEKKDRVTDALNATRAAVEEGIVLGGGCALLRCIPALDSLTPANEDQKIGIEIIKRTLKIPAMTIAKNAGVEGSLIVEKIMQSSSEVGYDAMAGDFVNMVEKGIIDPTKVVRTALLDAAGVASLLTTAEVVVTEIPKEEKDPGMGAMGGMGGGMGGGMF

Legend:
[1] = target: Fhit, induced in H1299D1 cells (human) (UniProt P49789); experiment: co-IP; lysates (1 mg total protein) of DSP cross-linked H1299D1 cells (PonA induced) or HCT116 cells; IP with anti-Fhit antiserum on protein A/G resin overnight at 4 °C, TBST washes; blots for HSP60, Fhit, HSP10
[2] = target: Fhit, endogenous in HCT116 (human (endogenous in HCT116)) (UniProt P49789); experiment: as above
[3] = target: GST-Fhit (human) (UniProt P49789); experiment: pull-down; 150 ug GST or GST-Fhit bound to glutathione agarose; lysate of H1299D1 cells transfected with HA-FDXR added, 4 °C overnight; washed five times in 1:1 TBS/RIPA; blots with antisera against HA, HSP60 and Fhit; only the target purified
[4] = target: Fhit, endogenous in HCT116 (human (endogenous in HCT116)) (UniProt P49789); experiment: proximity ligation; Duolink in situ PLA in HCT116 cells fixed with 4% paraformaldehyde and permeabilised with 0.5% Triton X-100; rabbit anti-Fhit and mouse anti-Fdxr; single-antibody controls

binding [1]: binds
Molecule: HSP10, endogenous in H1299D1 (from UniProt P61604 1-102)

binding [2]: binds
Molecule: HSP10, endogenous in HCT116 (from UniProt P61604 1-102)

binding [1]: binds
binding [3]: binds
Molecule: HSP60, endogenous in H1299D1 (from UniProt P10809-1 27-573)

binding [2]: binds
Molecule: HSP60, endogenous in HCT116 (from UniProt P10809-1 27-573)

binding [4]: binds
B1: Ferredoxin reductase (Fdxr), endogenous in HCT116 (protein, UniProt P22570 33-491)
chain: STQEKTPQICVVGSGPAGFYTAQHLLKHPQAHVDIYEKQPVPFGLVRFGVAPDHPEVKNVINTFTQTAHSGRCAFWGNVEVGRDVTVPELREAYHAVVLSYGAEDHRALEIPGEELPGVCSARAFVGWYNGLPENQELEPDLSCDTAVILGQGNVALDVARILLTPPEHLERTDITKAALGVLRQSRVKTVWLVGRRGPLQVAFTIKELREMIQLPGARPILDPVDFLGLQDKIKEVPRPRKRLTELLLRTATEKPGPAEAARQASASRAWGLRFFRSPQQVLPSPDGRRAAGVRLAVTRLEGVDEATRAVPTGDMEDLPCGLVLSSIGYKSRPVDPSVPFDSKLGVIPNVEGRVMDVPGLYCSGWVKRGPTGVIATTMTDSFLTGQMLLQDLKAGLLPSGPRPGYAAIQALLSSRGVRPVSFSDWEKLDAEEVARGQGTGKPREKLVDPQEMLRLLGH

binding [3]: binds
B2: HA-FDXR (protein, UniProt P22570 33-491)
chain: B1 chain
